{
  "sequences": {"note": "By UniProt entry, the sequences of proteins in these tests, tags left out.", "UniProt Q8NER1, whole entry, looked up": "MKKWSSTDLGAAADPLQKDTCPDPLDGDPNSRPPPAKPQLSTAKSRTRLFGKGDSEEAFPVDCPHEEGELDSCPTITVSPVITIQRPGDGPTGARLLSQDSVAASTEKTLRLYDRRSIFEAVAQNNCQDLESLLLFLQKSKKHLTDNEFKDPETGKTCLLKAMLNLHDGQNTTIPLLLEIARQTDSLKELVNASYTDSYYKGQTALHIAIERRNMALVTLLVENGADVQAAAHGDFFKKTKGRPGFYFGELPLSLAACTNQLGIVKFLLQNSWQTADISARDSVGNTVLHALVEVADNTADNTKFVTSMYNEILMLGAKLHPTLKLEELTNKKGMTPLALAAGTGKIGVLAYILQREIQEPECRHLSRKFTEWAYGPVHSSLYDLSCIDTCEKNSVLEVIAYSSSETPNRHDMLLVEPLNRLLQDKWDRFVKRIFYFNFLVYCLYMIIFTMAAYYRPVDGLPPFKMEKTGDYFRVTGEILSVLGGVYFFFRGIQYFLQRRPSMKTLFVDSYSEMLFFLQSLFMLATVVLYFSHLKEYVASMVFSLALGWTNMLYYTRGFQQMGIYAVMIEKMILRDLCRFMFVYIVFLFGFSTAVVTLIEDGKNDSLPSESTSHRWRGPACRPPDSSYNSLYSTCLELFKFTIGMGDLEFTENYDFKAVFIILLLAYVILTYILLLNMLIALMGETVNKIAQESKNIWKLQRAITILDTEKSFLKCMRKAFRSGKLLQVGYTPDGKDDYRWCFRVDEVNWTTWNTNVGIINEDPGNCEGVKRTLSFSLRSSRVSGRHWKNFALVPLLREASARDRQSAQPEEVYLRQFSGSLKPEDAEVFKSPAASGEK"},
  "source": "PubChem BioAssay AID540275",
  "about": "(National Center for Advancing Translational Sciences (NCATS), 2011)",
  "note": "About 620 (0.19%) of roughly 320,000 compounds were called active. Inconclusive means that the source gave no clear call. Such entries were picked first, then a sample of the others. Rule as the data show it: active = activation above about 80%; inconclusive = between about 30% and that limit; inactive = weaker than that.",
  "data": [
    {"target": "Transient receptor potential cation channel subfamily V member 1 (Homo sapiens) (UniProt Q8NER1)", "experiment": "HTS Assay for Compounds that Act as Agonists of the Vanilloid Receptor 1; also: 0% is about no effect", "settings": "TRPV1-expressing cells, Fluo-8 calcium influx, agonist mode; at 8.33 µM, stronger effect = higher value", "outline": "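TRPV1-expressing cells were cultured overnight at 35.5C and loaded with Fluo-8 calcium dye for 40 to 90 min at room temperature. After a 10 s baseline, compound was added and calcium influx was read kinetically for 3 min (ex 480/em 520 nm).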", "values": [
      {"smiles": "O=C(Nc1ccc(Oc2ccccc2)cc1)C1CCCO1", "note": "(centres undefined)", "activation": "inconclusive: 45.1%"},
      {"smiles": "O=C(Cc1ccc(F)cc1)Nc1ccc(F)c([N+](=O)[O-])c1", "activation": "inconclusive: 38.2%"},
      {"smiles": "Cc1ccc(NC(=O)c2cc3c(s2)CCCC3)cc1", "activation": "active: 83.7%"},
      {"smiles": "CCOc1cccc(CN2CCCC(C(=O)c3cc(Cl)ccc3OC)C2)c1O", "note": "(centres undefined)", "activation": "inconclusive: 38.2%"},
      {"smiles": "Cc1c(C(=O)N2CCN(c3ccccn3)CC2)oc2c1C(=O)CC(C)(C)C2", "activation": "inconclusive: 35.8%"},
      {"smiles": "Cc1ccc(C)c(OCc2ccc(C(=O)NN)o2)c1", "activation": "inconclusive: 69.1%"},
      {"smiles": "COCCNC(=O)C(c1ccc(C)cc1)N(C(=O)C(=O)NC1CCCC1)c1ccc2c(c1)OCCO2", "note": "(centres undefined)", "activation": "inactive: -2.34%"},
      {"smiles": "CC(C)CNC(=S)N1CCC(Cc2ccccc2)CC1", "activation": "inconclusive: 40%"},
      {"smiles": "CC(C)N1CCc2c(sc(NC(=O)c3ccc([N+](=O)[O-])o3)c2C(N)=O)C1", "activation": "inactive: -5.42%"},
      {"smiles": "CCN(CC)S(=O)(=O)c1cccc(NC(=O)C(=O)c2c(-c3ccccc3)cc3ccccn23)c1", "activation": "inactive: -1.45%"},
      {"smiles": "O=C(NC(=S)Nc1ccc2c(c1)OCCO2)c1ccccc1F", "activation": "inactive: 5.01%"},
      {"smiles": "CCc1cc(C(=O)NNC(=O)CCl)sc1C", "activation": "inactive: 2.89%"},
      {"smiles": "Cc1ccc(NC(=O)CNC(=O)c2ccccc2F)cc1Cl", "activation": "inconclusive: 55.3%"},
      {"smiles": "CC(Sc1nc(N2CCOCC2)c2c(c1C#N)CC(C)(C)OC2)C(=O)Nc1ccccc1", "note": "(centres undefined)", "activation": "inconclusive: 64%"},
      {"smiles": "CCOC(=O)[C@H]1[C@H]2COc3ccc(OC)cc3[C@@H]2N2C(=O)c3ccc(Cl)cc3NC(=O)[C@@]12C", "activation": "active: 90.2%"},
      {"smiles": "COC(=O)c1[nH]c2ccc(C)cc2c1NC(=O)CN1CCN(c2ccccc2)CC1", "activation": "inconclusive: 50.7%"},
      {"smiles": "O=S(=O)(c1cc(F)ccc1F)N1CCC2(CC1)OCCO2", "activation": "inconclusive: 37.6%"},
      {"smiles": "O=C(Nc1nc2ccc(Cl)cc2s1)c1ccco1", "activation": "inconclusive: 59.4%"},
      {"smiles": "CC1=CC(C)(C)N(C(=O)C(C)N2C(=O)c3ccccc3C2=O)c2c(C)cc(C)cc21", "note": "(centres undefined)", "activation": "inconclusive: 30.7%"},
      {"smiles": "COc1ccc(C(C(=O)NC2CCCC2)N(C(=O)c2snc(C(N)=O)c2N)c2cc(C)ccc2OC)cc1OC", "note": "(centres undefined)", "activation": "inconclusive: 48.5%"},
      {"smiles": "Cc1cc(C)c(C#N)c(SCc2cn3c(C)cccc3n2)n1", "activation": "inconclusive: 42%"},
      {"smiles": "Cc1cccc(CS(=O)(=O)c2cn(CC(=O)N3CCOCC3)c3ccccc23)c1", "activation": "inactive: -0.185%"},
      {"smiles": "O=C(Nc1ccc(Nc2ccccc2)cc1)N1CCOCC1", "activation": "inconclusive: 33.7%"},
      {"smiles": "CC(C)CCNC(=O)c1cc(S(=O)(=O)N2CCCCC2)ccc1N1CCOCC1", "activation": "inconclusive: 40.3%"}
    ]}
  ]
}
